Laboratory results: PubChem BioAssay AID1224828 (NIAID, 2016)
Purpose: 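Find genes required for NF-kappaB p65 moving into the nucleus after LPS in mouse macrophages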 (primary screen). Cells: mouse RAW264.7 G9 macrophage reporter cells (GFP-p65, Tnf promoter-mCherry). Reagents: siRNA pool against mouse genes, 100 nM. Timing: 2 days siRNA transfection, then 40 min LPS before fixation. Treatment: LPS (Salmonella minnesota R595) at 10 ng/ml. Read-out: 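Imaged p65 nuclear translocation ratio, normalised to the plate median, converted to robust z-scores and averaged across two replicates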. Scale: p65 translocation robust z-score: higher = more nuclear NF-kappaB p65 after LPS than the plate median; nuclear/cytoplasmic p65 ratio: higher = more nuclear NF-kappaB p65. Rule for the call: 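Active if robust z is above 3.3 (negative regulators) or below -1.56, the Tlr4 control median (positive regulators); activity score 50 or more; control wells not called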. Calls: active = hit (p65 shift raised or lowered); inactive = no clear change.
The whole screen tested about 17,000 reagents; below is a part drawn at random. In the full data, 762 (4.5%) were called active. 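Active calls include both raised and lowered p65 entry, mostly lowered; wells with fewer than 50 cells lack a z-score.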 The raw values are shown without normalisation. Entries without a mark were called inactive. The numbers tell different reagents against one gene apart.

{"Target gene":"Slamf7 (SLAM family member 7)","pool no.":1,"p65 translocation robust z-score":-0.15,"nuclear/cytoplasmic p65 ratio, rep 1":1.38,"nuclear/cytoplasmic p65 ratio, rep 2":1.25,"low cell count flag":"enough cells to score"}
{"Target gene":"Vmn1r174 (vomeronasal 1 receptor 174)","pool no.":1,"p65 translocation robust z-score":0.91,"nuclear/cytoplasmic p65 ratio, rep 1":1.56,"nuclear/cytoplasmic p65 ratio, rep 2":1.29,"low cell count flag":"enough cells to score"}
{"Target gene":"Sephs1 (selenophosphate synthetase 1)","pool no.":1,"p65 translocation robust z-score":0.44,"nuclear/cytoplasmic p65 ratio, rep 1":1.57,"nuclear/cytoplasmic p65 ratio, rep 2":1.43,"low cell count flag":"enough cells to score"}
{"Target gene":"Pik3c2g","pool no.":1,"p65 translocation robust z-score":"-2.16 (active)","nuclear/cytoplasmic p65 ratio, rep 1":1.22,"nuclear/cytoplasmic p65 ratio, rep 2":1.2,"low cell count flag":"enough cells to score"}
{"Target gene":"Ifnz (interferon zeta)","pool no.":1,"p65 translocation robust z-score":0.59,"nuclear/cytoplasmic p65 ratio, rep 1":1.83,"nuclear/cytoplasmic p65 ratio, rep 2":1.61,"low cell count flag":"enough cells to score"}
{"Target gene":"Slc25a45","pool no.":1,"p65 translocation robust z-score":-1.21,"nuclear/cytoplasmic p65 ratio, rep 1":1.39,"nuclear/cytoplasmic p65 ratio, rep 2":1.37,"low cell count flag":"enough cells to score"}
{"Target gene":"Xlr3a (X-linked lymphocyte-regulated 3A)","pool no.":1,"p65 translocation robust z-score":-1.25,"nuclear/cytoplasmic p65 ratio, rep 1":1.17,"nuclear/cytoplasmic p65 ratio, rep 2":1.11,"low cell count flag":"enough cells to score"}

2 successive reagents from above:
{"Target gene":"Pik3c2g","pool no.":1,"p65 translocation robust z-score":"-2.16 (active)","nuclear/cytoplasmic p65 ratio, rep 1":1.22,"nuclear/cytoplasmic p65 ratio, rep 2":1.2,"low cell count flag":"enough cells to score"}
{"Target gene":"Ifnz (interferon zeta)","pool no.":1,"p65 translocation robust z-score":0.59,"nuclear/cytoplasmic p65 ratio, rep 1":1.83,"nuclear/cytoplasmic p65 ratio, rep 2":1.61,"low cell count flag":"enough cells to score"}

The list goes on.
{"Target gene":"Stx1b (syntaxin 1B)","pool no.":1,"p65 translocation robust z-score":1.4,"nuclear/cytoplasmic p65 ratio, rep 1":1.6,"nuclear/cytoplasmic p65 ratio, rep 2":1.39,"low cell count flag":"enough cells to score"}
{"Target gene":"Stx1b (syntaxin 1B)","pool no.":2,"p65 translocation robust z-score":-0.27,"nuclear/cytoplasmic p65 ratio, rep 1":1.38,"nuclear/cytoplasmic p65 ratio, rep 2":1.23,"low cell count flag":"enough cells to score"}
{"Target gene":"Hexim1 (hexamethylene bis-acetamide inducible 1)","pool no.":1,"p65 translocation robust z-score":0.1,"nuclear/cytoplasmic p65 ratio, rep 1":1.64,"nuclear/cytoplasmic p65 ratio, rep 2":1.76,"low cell count flag":"enough cells to score"}
{"Target gene":"Pex11b (peroxisomal biogenesis factor 11 beta)","pool no.":1,"p65 translocation robust z-score":0,"nuclear/cytoplasmic p65 ratio, rep 1":1.51,"nuclear/cytoplasmic p65 ratio, rep 2":1.35,"low cell count flag":"enough cells to score"}
{"Target gene":"Txlng (taxilin gamma)","pool no.":1,"nuclear/cytoplasmic p65 ratio, rep 1":1.08,"nuclear/cytoplasmic p65 ratio, rep 2":1.07,"low cell count flag":"fewer than 50 cells per well; well left out of scoring"}
{"Target gene":"Tex13b (testis expressed 13B)","pool no.":1,"p65 translocation robust z-score":1.12,"nuclear/cytoplasmic p65 ratio, rep 1":1.34,"nuclear/cytoplasmic p65 ratio, rep 2":1.31,"low cell count flag":"enough cells to score"}
{"Target gene":"Iqcg (IQ motif containing G)","pool no.":1,"nuclear/cytoplasmic p65 ratio, rep 1":1.18,"nuclear/cytoplasmic p65 ratio, rep 2":1.08,"low cell count flag":"fewer than 50 cells per well; well left out of scoring"}
{"Target gene":"Gzf1 (GDNF-inducible zinc finger protein 1)","pool no.":1,"p65 translocation robust z-score":-0.3,"nuclear/cytoplasmic p65 ratio, rep 1":1.38,"nuclear/cytoplasmic p65 ratio, rep 2":1.21,"low cell count flag":"enough cells to score"}
{"Target gene":"Emc1 (ER membrane protein complex subunit 1)","pool no.":1,"p65 translocation robust z-score":1.38,"nuclear/cytoplasmic p65 ratio, rep 1":1.57,"nuclear/cytoplasmic p65 ratio, rep 2":1.76,"low cell count flag":"enough cells to score"}
{"Target gene":"Kdm4b (lysine (K)-specific demethylase 4B)","pool no.":1,"nuclear/cytoplasmic p65 ratio, rep 1":1.32,"nuclear/cytoplasmic p65 ratio, rep 2":0.996,"low cell count flag":"fewer than 50 cells per well; well left out of scoring"}
{"Target gene":"Xlr (X-linked lymphocyte-regulated)","pool no.":1,"p65 translocation robust z-score":0.75,"nuclear/cytoplasmic p65 ratio, rep 1":1.32,"nuclear/cytoplasmic p65 ratio, rep 2":1.33,"low cell count flag":"enough cells to score"}
{"Target gene":"Faah (fatty acid amide hydrolase)","pool no.":1,"p65 translocation robust z-score":2.15,"nuclear/cytoplasmic p65 ratio, rep 1":1.8,"nuclear/cytoplasmic p65 ratio, rep 2":1.6,"low cell count flag":"enough cells to score"}
{"Target gene":"Neu1 (neuraminidase 1)","pool no.":1,"p65 translocation robust z-score":-0.21,"nuclear/cytoplasmic p65 ratio, rep 1":1.41,"nuclear/cytoplasmic p65 ratio, rep 2":1.32,"low cell count flag":"enough cells to score"}
{"Target gene":"V1rb5 (retired record)","pool no.":1,"p65 translocation robust z-score":1.4,"nuclear/cytoplasmic p65 ratio, rep 1":1.58,"nuclear/cytoplasmic p65 ratio, rep 2":1.37,"low cell count flag":"enough cells to score"}
